Literature values as cited in patent US8481255B2, “Scytovirin domain 1 related polypeptides” (The United States of America, as represented by the …, priority 2005, dated 2013).
At least one structure is not confirmed: it was looked up by name or label, or the drawing left a doubt.

Details: generally; cited from earlier work

SMILES: Nc1ccn([C@H]2CC[C@@H](CO)O2)c(=O)n1 [ddC]
- virustatic range: 0.05 μM to 1.0
